Biological target: EAAT2 (Homo sapiens, UniProt P43004)
Assay: Inhibition of [14C]-glutamic acid uptake by EAAT2 expressed in MDCK or COS-1 cells
Assay type: cell-based
Design: expressed in transfected cells
Method: In accordance with a known method (Shimamoto, K. et al., Mol. Pharmacol. 53, 195-201, 1998; Bioorg. Med. Chem. Lett. 10, 2407-2410, 2000), the inhibitory activity was assayed as the ability to inhibit the uptake of [^14C]-glutamic acid by human EAAT2 and EAAT3 stably expressed in MDCK (Madin-Darby canine kidney) cells or transiently expressed in COS-1 cells. The glutamate uptake activity was assayed by incubating a mixture of 1 μM of L-[^14C]-glutamic acid with a sample compound at a predetermined concentration for 12 minutes, lysing the cells and then measuring the radioactivity incorporated into the cells with a liquid scintillator. The amount of uptake was expressed in percentage by referring the amount of uptake in the absence of a test compound (i.e., the buffer alone) as 100% and referring the amount of uptake in a sodium-free solution as 0%.

The chains behind the UniProt entries cited, without tags or fusion partners.
UniProt P43004, whole entry: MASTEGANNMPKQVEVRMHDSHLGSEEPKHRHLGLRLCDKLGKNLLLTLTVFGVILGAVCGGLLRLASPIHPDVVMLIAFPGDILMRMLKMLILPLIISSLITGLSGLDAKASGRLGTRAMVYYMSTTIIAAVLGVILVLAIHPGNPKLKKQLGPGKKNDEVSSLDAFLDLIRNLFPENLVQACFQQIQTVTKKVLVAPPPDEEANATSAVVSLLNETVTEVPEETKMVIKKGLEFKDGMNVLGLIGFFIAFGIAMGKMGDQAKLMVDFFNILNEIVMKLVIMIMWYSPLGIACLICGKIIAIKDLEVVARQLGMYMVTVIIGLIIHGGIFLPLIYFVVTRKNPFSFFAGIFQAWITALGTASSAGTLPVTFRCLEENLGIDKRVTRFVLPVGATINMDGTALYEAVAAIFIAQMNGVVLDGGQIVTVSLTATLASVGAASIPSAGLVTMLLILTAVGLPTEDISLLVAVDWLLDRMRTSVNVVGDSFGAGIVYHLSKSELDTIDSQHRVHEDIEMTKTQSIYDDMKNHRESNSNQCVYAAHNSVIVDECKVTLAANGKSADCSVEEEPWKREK

For `CCc1ccc(C(=O)Nc2cccc(CO[C@H](C(=O)O)[C@H](N)C(=O)O)c2)cc1` [Et-BzA-TBOA, (2S,3S)-3-[3-(4-ethylbenzoylamino)benzyloxy]aspartate], the IC50 (1 μM L-[14C]-glutamic acid, 12 minutes) was 3.2 ± 0.3 nM and the “Inhibition of EAAT2, potency compared with I-BzA-TBOA” value (in words) was “almost the same potency as I-BzA-TBOA”.

Source: patent US8097654B2, “Radiolabeled 3-[3-(benzoyl-amido)benzyloxy]aspartic acid derivative and method of producing the same” (Suntory Holdings Limited, priority 2004, dated 2012)
